From patent US10987357B2, “Aerosolized fluoroquinolones and uses thereof” (Horizon Orphan, LLC, priority 2005, dated 2021)

Procedure: In the second test, the tolerability and taste of a small aerosol sample from a 0.5 ml aliquot of the test formulation was determined in a single healthy human volunteer, following nebulization in a PARI eFlow nebulizer (Table 12).
The tolerability and taste of the drug during a very brief administration period and for a period of 10 minutes post administration were monitored. Tolerability parameters were of the following types: (i) cough, cough sensation, or sneezing (ii) irritation, burning or tightness of throat, (ii) irritation or runniness in nasal passages or eyes, (iii) irritation, burning or tightness of the lungs or shortness of breadth, and (iv) dizziness, headache, nausea or other systemic effects.

For CCn1cc(C(=O)O)c(=O)c2cc(F)c(N3CCN(C)CC3)cc21 [Pefloxacin], the “Aerosol Tolerability and Taste” value (aerosol from 0.5 ml aliquot, single volunteer) was “chemical taste, some cough” and the “cough on aerosol exposure” value (in vivo) was “associated with cough”.
